Our source for the log2 fold change values is the supplement of paper PMC10849652.

Sequences of proteins named here, by UniProt entry; tags and fusion partners are left off. A change or cut given only in a name is not applied to a line headed by its entry.
UniProt O43432, whole entry, looked up: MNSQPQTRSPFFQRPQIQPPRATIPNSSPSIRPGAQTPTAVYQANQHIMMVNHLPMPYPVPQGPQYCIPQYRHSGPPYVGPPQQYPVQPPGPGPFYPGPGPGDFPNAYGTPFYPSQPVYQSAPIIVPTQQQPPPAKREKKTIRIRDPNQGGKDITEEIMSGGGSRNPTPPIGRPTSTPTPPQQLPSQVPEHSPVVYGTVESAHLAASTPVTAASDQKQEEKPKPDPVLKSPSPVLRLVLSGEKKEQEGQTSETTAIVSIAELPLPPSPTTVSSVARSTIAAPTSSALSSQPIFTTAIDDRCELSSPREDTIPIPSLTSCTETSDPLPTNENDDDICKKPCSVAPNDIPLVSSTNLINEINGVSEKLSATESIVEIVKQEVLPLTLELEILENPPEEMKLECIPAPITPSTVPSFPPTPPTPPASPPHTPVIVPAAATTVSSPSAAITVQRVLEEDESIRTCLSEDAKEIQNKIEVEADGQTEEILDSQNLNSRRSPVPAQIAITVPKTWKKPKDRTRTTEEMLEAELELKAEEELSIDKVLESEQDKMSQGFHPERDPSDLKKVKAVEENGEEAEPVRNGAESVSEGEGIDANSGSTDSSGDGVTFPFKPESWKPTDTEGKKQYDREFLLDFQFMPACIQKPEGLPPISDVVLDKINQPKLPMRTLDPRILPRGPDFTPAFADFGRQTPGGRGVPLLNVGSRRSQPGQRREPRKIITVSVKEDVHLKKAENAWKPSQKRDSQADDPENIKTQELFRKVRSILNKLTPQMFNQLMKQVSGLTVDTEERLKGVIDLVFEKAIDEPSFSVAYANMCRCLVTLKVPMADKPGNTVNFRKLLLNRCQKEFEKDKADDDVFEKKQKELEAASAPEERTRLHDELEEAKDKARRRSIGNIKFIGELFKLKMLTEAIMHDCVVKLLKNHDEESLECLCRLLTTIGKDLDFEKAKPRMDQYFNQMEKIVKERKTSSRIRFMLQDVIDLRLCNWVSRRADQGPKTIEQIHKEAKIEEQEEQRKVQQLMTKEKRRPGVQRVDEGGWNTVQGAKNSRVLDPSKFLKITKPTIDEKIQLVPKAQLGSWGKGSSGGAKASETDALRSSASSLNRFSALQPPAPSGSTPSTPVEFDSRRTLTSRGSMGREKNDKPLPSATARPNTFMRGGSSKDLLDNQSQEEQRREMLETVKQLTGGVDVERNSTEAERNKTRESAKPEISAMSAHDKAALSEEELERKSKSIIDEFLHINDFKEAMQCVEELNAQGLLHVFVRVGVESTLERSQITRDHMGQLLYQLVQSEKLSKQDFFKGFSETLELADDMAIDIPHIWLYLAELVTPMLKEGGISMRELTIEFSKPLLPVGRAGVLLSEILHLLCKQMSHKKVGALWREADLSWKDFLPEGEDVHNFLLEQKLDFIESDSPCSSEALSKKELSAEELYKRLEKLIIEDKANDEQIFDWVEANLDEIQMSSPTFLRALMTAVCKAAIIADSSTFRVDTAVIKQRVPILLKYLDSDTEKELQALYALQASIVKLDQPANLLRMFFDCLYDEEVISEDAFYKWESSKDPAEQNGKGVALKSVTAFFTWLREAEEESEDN
UniProt O75822, whole entry, looked up: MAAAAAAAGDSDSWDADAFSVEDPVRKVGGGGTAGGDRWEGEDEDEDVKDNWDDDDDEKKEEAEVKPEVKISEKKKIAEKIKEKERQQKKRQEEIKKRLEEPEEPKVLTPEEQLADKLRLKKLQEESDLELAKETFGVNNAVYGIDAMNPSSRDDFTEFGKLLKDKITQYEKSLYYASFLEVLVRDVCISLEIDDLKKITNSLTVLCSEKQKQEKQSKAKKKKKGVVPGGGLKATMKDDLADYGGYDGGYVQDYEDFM
UniProt Q9BQI3, whole entry, looked up: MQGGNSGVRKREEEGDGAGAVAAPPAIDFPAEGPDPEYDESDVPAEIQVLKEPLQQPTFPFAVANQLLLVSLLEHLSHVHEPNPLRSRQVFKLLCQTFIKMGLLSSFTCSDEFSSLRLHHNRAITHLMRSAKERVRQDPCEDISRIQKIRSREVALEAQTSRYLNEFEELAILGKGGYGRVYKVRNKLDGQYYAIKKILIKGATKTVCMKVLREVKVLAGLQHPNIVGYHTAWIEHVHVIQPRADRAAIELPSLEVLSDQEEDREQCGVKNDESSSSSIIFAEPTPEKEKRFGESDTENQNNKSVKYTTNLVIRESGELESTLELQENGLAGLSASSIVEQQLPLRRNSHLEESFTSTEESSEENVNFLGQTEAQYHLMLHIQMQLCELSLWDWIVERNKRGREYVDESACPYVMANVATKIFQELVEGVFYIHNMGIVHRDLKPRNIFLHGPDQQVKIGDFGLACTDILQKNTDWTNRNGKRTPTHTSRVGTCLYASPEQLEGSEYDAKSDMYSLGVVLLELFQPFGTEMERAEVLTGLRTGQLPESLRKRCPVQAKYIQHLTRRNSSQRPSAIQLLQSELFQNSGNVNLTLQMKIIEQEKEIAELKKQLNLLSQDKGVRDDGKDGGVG
UniProt O60739, whole entry, looked up: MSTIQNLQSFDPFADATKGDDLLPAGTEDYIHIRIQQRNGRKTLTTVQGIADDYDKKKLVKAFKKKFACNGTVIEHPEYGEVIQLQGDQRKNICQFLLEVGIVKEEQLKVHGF
UniProt Q5NDL2: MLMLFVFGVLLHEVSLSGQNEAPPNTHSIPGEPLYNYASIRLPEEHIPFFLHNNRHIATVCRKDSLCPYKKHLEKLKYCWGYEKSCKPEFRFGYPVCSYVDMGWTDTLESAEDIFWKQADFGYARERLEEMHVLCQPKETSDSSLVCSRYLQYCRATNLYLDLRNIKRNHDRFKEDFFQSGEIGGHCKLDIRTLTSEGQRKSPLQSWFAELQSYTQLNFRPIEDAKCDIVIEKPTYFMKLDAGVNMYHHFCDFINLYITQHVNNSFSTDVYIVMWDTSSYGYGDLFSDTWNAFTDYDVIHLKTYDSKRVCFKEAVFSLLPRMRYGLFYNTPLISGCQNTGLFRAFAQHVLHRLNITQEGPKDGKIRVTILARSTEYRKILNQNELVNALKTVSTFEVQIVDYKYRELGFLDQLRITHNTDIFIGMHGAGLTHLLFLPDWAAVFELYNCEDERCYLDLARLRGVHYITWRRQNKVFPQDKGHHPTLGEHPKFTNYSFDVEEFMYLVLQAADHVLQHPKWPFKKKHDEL
UniProt P41091, whole entry, looked up: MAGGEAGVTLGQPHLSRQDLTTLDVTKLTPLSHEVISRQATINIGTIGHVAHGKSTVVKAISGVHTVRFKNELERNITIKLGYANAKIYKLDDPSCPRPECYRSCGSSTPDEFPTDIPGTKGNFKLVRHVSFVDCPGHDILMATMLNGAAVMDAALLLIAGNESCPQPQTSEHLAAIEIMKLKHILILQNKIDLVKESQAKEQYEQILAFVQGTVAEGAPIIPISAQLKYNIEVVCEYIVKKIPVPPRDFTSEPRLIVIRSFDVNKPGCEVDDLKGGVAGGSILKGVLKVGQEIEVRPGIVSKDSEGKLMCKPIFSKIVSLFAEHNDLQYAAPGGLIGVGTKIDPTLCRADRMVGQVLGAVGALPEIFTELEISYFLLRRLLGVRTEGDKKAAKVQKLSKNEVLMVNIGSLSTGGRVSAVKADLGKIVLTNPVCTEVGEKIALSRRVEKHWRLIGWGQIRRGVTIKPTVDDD
UniProt O60573: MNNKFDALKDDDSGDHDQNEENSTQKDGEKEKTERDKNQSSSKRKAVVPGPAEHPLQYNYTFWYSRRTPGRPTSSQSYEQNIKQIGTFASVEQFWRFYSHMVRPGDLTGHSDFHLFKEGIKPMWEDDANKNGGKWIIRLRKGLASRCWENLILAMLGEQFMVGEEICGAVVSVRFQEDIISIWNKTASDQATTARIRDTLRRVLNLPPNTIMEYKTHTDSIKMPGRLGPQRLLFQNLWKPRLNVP
UniProt Q05BV3: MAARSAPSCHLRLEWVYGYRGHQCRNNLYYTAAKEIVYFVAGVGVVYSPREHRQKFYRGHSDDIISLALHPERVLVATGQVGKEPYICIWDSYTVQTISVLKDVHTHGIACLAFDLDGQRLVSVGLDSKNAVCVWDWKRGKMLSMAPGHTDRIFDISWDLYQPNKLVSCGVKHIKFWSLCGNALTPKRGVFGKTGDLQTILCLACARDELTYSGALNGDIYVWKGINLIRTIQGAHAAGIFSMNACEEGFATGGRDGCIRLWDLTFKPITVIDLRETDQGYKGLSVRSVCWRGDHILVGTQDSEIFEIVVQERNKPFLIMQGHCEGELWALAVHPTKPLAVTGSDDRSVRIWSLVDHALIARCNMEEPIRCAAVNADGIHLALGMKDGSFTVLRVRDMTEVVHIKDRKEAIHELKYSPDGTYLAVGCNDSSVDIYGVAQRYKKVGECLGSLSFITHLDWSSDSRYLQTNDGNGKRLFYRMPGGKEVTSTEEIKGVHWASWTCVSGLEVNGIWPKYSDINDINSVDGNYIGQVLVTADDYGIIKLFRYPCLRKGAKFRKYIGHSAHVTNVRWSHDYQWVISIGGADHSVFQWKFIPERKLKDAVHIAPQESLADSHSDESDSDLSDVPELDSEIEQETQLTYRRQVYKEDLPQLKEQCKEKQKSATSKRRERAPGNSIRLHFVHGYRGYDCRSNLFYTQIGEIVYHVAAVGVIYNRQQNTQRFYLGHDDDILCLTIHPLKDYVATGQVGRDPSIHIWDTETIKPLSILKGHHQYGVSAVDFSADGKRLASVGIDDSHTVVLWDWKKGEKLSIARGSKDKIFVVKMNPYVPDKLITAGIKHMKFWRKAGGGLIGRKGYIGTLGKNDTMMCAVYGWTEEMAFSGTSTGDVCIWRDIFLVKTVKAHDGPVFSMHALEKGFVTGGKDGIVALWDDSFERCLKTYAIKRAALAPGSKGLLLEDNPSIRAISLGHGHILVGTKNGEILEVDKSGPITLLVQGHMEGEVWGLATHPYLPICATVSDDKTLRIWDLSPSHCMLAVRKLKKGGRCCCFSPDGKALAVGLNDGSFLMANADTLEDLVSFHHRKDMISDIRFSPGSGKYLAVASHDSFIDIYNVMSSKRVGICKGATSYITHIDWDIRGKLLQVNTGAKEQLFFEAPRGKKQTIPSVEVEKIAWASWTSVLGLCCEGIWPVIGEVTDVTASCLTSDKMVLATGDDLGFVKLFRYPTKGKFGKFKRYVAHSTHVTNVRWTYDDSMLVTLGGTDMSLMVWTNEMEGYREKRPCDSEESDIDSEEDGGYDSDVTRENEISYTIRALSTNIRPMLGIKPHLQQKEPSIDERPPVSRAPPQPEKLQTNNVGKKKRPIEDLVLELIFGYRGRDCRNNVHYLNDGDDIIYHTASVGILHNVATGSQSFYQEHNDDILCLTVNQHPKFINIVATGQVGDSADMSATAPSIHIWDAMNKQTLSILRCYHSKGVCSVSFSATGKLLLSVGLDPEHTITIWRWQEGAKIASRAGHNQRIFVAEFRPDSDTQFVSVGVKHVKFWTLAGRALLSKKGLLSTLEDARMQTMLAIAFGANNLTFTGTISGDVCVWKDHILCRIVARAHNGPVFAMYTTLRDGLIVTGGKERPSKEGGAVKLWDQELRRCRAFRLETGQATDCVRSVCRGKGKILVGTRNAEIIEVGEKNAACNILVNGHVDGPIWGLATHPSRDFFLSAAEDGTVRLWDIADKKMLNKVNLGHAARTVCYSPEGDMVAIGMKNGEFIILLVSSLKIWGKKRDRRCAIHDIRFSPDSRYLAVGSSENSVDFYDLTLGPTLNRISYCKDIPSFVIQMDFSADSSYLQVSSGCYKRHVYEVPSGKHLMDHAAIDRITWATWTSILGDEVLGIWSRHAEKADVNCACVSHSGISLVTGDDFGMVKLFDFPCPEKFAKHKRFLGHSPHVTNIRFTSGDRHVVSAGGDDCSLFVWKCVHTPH
UniProt Q92556, whole entry, looked up: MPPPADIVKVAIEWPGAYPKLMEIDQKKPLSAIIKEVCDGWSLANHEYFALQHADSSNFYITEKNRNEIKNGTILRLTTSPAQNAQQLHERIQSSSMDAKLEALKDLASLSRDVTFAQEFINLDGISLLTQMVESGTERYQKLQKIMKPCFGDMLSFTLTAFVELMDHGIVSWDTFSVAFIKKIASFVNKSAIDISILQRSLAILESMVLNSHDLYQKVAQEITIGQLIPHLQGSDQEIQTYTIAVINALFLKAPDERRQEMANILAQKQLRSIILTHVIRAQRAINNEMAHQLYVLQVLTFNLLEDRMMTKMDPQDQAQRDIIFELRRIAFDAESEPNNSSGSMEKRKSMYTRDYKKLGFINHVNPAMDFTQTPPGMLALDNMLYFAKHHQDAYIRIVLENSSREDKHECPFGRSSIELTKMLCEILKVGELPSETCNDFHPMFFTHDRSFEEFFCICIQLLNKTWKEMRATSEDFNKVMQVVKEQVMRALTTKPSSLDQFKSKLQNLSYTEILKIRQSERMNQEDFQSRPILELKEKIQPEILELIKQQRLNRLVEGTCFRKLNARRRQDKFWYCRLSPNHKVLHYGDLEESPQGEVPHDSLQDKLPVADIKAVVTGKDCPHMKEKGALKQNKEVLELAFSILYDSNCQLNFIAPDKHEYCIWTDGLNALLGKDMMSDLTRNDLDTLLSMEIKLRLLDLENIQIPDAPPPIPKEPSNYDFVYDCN

The other results are listed elsewhere or left out.

Compound in the assay: CC(C)N(C[C@H]1O[C@@H](n2cnc3c(N)ncnc32)[C@H](O)[C@@H]1O)[C@H]1C[C@@H](CCc2nc3cc(C(C)(C)C)ccc3[nH]2)C1 [pinometostat]
Briefly: log2 fold change, soluble protein after heating vs DMSO (PISA); higher = thermal stabilisation; K562 cells, 10 uM, 30 min; active = over 0.2 and 3.5 SD of the protein, either way, in both replicates (recomputed). Put shortly:
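Soluble protein was quantified by TMTpro 16plex LC-MS/MS after channel sums were equalised. It was obtained as the supernatant after 21,000xg for 90 min from pooled aliquots of K562 cells (2×10^6 cells/mL, 10 μM compound, 30 min) heated for 3 min across 48°C-58°C and extracted in PBS with 0.5% NP-40 at 4°C. Thermal stability values are relative to control samples and come from duplicates. They are given as log2 fold changes.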
On to EIF4G3 isoform 3 (UniProt O43432), for which the log2 fold change is inactive: 0.079.
The figure for EIF3J isoform 2 (UniProt O75822) is inactive: -0.018.
Consider EEF1AKNMT (UniProt Q8N6R0), for which the log2 fold change is active: 0.354.
The figure for EIF2AK1 (UniProt Q9BQI3) is inactive: 0.031.
Consider EIF2B4 (UniProt Q9UI10), for which the log2 fold change is inactive: 0.09.
Consider EIF3G (UniProt K7ER90), for which the log2 fold change is inactive: -0.036.
The figure for EED, A0A5F9ZI63 is inactive: 0.052.
For the target EIF1B (UniProt O60739), the log2 fold change was inactive: -0.192.
The same measure for EOGT (UniProt Q5NDL2): inactive: 0.075; for EIF2AK2 (UniProt P19525): inactive: 0.579.
For ELOVL1 (UniProt Q9BW60), the log2 fold change was inactive: 0.063.
The figure for EIF2S3 (UniProt P41091) is inactive: 0.077; for EEF1G isoform 2 (UniProt P26641) it is inactive: 0.042; for ELAC1 (UniProt Q9H777) it is inactive: -0.129.
The figure for EIF4E2 (UniProt O60573) is inactive: 0.043.
Take EFCAB14 (UniProt O75071): the log2 fold change was inactive: -0.061.
EGLN1 (UniProt Q9GZT9): the log2 fold change is inactive: 0.045.
With EFEMP1 (UniProt Q12805), the log2 fold change was inactive: -0.141.
The same measure for EFL1 (UniProt Q7Z2Z2): inactive: 0.005.
The figure for EIF2AK3 (UniProt Q9NZJ5) is inactive: -0.048; for EML5 isoform 5 (UniProt Q05BV3) it is inactive: 0.
The same measure for ELMO1 (UniProt Q92556): inactive: -0.161; for ENPP3 (UniProt O14638): inactive: 0.279.
